Test results taken from article PMC3995069.
Results are given in words; binding and its absence hold for the method and conditions named. In cells and extracts the contact can be indirect. Some entries that bind do so weakly or less than the wild type. Sequences can lack the tags named with a protein.

Molecular target: T1, extracellularly FLAG-tagged Kir3.1 (UniProt P48549)
T1 sequence: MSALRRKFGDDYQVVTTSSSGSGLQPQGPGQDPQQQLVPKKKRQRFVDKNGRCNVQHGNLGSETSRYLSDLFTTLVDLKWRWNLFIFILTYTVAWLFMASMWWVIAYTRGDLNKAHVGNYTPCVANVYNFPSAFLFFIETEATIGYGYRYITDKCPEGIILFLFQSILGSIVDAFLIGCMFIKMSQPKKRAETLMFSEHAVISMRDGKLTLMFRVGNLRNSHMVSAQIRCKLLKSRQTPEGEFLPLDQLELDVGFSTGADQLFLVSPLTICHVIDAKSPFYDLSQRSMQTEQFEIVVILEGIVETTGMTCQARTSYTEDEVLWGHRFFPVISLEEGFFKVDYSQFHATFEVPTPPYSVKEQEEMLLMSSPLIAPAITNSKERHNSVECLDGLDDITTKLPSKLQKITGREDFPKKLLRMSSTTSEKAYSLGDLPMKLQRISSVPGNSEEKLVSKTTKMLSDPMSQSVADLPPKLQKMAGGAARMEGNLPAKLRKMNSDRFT
Test: co-IP; FLAG-Kir3.1 precipitated with anti-FLAG M2 agarose from membranes solubilised in 0.5% dodecylmaltoside, overnight at 4°C, washed with 300 mM KCl, eluted with FLAG peptide; blot with anti-myc for Kir3.2; cells with control, Gβ1, Gβ4, Gβ4/Gγ2, Gγ2, Gγ4, Gγ5 or Gγ7 siRNA or overexpressed Gβ1 or HA-Gγ2; chase 0-48 h after a 30 min tetracycline pulse

- binding: binds
B1: Kir3.2-MYC (protein, UniProt P48051 1-423)
chain: MAKLTESMTNVLEGDSMDQDVESPVAIHQPKLPKQARDDLPRHISRDRTKRKIQRYVRKDGKCNVHHGNVRETYRYLTDIFTTLVDLKWRFNLLIFVMVYTVTWLFFGMIWWLIAYIRGDMDHIEDPSWTPCVTNLNGFVSAFLFSIETETTIGYGYRVITDKCPEGIILLLIQSVLGSIVNAFMVGCMFVKISQPKKRAETLVFSTHAVISMRDGKLCLMFRVGDLRNSHIVEASIRAKLIKSKQTSEGEFIPLNQTDINVGYYTGDDRLFLVSPLIISHEINQQSPFWEISKAQLPKEELEIVVILEGMVEATGMTCQARSSYITSEILWGYRFTPVLTLEDGFYEVDYNSFHETYETSTPSLSAKELAELASRAELPLSWSVSSKLNQHAELETEEEEKNLEEQTERNGDVANLENESKV
